Results are given in words; binding and its absence hold for the method and conditions named. Some entries that bind do so weakly or less than the wild type. For some of these results: Tags and fused reporters may be left off the sequences shown. Each block holds one binder with its values, some of them ahead of it.
How the values were obtained:
[1] = target: T1, endogenous soluble human NRP2 (serum) (human) (UniProt O60462); test: HRS:NRP2 complex ELISA on human serum (capture of one partner, detection of the other)
T1 sequence (looked up): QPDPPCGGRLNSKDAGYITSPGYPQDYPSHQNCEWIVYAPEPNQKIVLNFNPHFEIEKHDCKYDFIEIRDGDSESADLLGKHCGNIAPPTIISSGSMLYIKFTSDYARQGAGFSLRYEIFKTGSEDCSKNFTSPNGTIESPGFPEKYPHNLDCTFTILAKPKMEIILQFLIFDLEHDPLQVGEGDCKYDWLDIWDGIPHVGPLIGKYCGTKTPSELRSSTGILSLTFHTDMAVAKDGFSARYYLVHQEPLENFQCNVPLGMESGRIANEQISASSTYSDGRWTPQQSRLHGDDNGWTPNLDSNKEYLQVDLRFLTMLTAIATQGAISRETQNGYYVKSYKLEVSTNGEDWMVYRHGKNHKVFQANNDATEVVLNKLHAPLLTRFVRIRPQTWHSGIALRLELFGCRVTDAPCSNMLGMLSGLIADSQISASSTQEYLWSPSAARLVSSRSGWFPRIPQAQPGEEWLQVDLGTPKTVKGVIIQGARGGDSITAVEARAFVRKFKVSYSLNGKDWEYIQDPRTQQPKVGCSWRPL

[2] = target: T1, endogenous soluble human NRP2 (serum) (human); test: HRS:NRP2 complex ELISA (MSD) on human serum: capture with an NRP2 mAb, detection with the HRS C-terminal mAb 13C8
[3] = target: T1, endogenous soluble human NRP2 (serum) (human); test: HRS:NRP2 complex ELISA (MSD) on human serum: capture with an NRP2 mAb, detection with the HRS N-terminal mAb 12H6
[4] = target: T1, endogenous soluble human NRP2 (serum) (human); test: HRS:NRP2 complex ELISA (MSD) on human serum: capture with the HRS C-terminal mAb 13C8, detection with an NRP2 antibody
[5] = target: T1, endogenous soluble human NRP2 (serum) (human); test: HRS:NRP2 complex ELISA (MSD) on human serum: capture with the HRS N-terminal mAb 12H6, detection with an NRP2 antibody
[6] = target: T1, endogenous soluble human NRP2 (serum) (human); test: HRS:NRP2 complex ELISA (MSD) on human serum: capture with an NRP2 mAb, detection with the HRS N-terminal antibody HARS_NT
Fc-HRS(2-60) (human) [7] = target: T2, Fc-HRS(2-60) (human) (UniProt P12081); test: SPR; Fc-HRS(2-60) immobilized
T2 sequence: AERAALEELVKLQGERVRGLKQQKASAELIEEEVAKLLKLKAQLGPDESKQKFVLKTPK

Fc-HRS(2-60) (human) [8] = target: T2, Fc-HRS(2-60) (human); test: SPR; Fc-HRS(2-60) immobilized, 50 nM analyte
Fc-HRS(2-60) (human) [9] = target: T2, Fc-HRS(2-60) (human); test: SPR: 50 nM mouse NRP2 as analyte over immobilized Fc-HRS(2-60) [panel A]
[10] = target: NRP2-Fc (R&D Systems #2215-N2) (human) (UniProt O60462); test: SPR
[11] = target: NRP2-Fc (R&D Systems #2215-N2) (human) (UniProt O60462); test: SPR; column Binding to NRP2 observed by SPR

- binding [1]: binds
- binding [2]: binds
- binding [3]: binds
- binding [4]: binds
- binding [5]: binds
- binding [6]: binds
B1: endogenous circulating human HRS (serum) (enzyme)
chain: AERAALEELVKLQGERVRGLKQQKASAELIEEEVAKLLKLKAQLGPDESKQKFVLKTPKGTRDYSPRQMAVREKVFDVIIRCFKRHGAEVIDTPVFELKETLMGKYGEDSKLIYDLKDQGGELLSLRYDLTVPFARYLAMNKLTNIKRYHIAKVYRRDNPAMTRGRYREFYQCDFDIAGNFDPMIPDAECLKIMCEILSSLQIGDFLVKVNDRRILDGMFAICGVSDSKFRTICSSVDKLDKVSWEEVKNEMVGEKGLAPEVADRIGDYVQQHGGVSLVEQLLQDPKLSQNKQALEGLGDLKLLFEYLTLFGIDDKISFDLSLARGLDYYTGVIYEAVLLQTPAQAGEEPLGVGSVAAGGRYDGLVGMFDPKGRKVPCVGLSIGVERIFSIVEQRLEALEEKIRTTETQVLVASAQKKLLEERLKLVSELWDAGIKAELLYKKNPKLLNQLQYCEEAGIPLVAIIGEQELKDGVIKLRSVTSREEVDVRREDLVEEIKRRTGQPLCIC

- binding (Fc-HRS(2-60) (human) [7]): binds
- binding (Fc-HRS(2-60) (human) [8]): binds
- binding (Fc-HRS(2-60) (human) [9]): binds
B2: Mouse NRP2-Fc (R&D Systems #7988-N2) (Fc fusion, UniProt O35375 23-864, looked up, not shown: a dimerising Fc or GST)
chain: QQDPPCGGRLNSKDAGYITSPGYPQDYPSHQNCEWIVYAPEPNQKIVLNFNPHFEIEKHDCKYDFIEIRDGDSESADLLGKHCGNIAPPTIISSGSVLYIKFTSDYARQGAGFSLRYEIFKTGSEDCSKNFTSPNGTIESPGFPEKYPHNLDCTFTILAKPRMEIILQFLTFDLEHDPLQVGEGDCKYDWLDIWDGIPHVGPLIGKYCGTKTPSKLRSSTGILSLTFHTDMAVAKDGFSARYYLIHQEPPENFQCNVPLGMESGRIANEQISASSTFSDGRWTPQQSRLHGDDNGWTPNLDSNKEYLQVDLRFLTMLTAIATQGAISRETQKGYYVKSYKLEVSTNGEDWMVYRHGKNHKIFQANNDATEVVLNKLHMPLLTRFIRIRPQTWHLGIALRLELFGCRVTDAPCSNMLGMLSGLIADTQISASSTREYLWSPSAARLVSSRSGWFPRNPQAQPGEEWLQVDLGTPKTVKGVIIQGARGGDSITAVEARAFVRKFKVSYSLNGKDWEYIQDPRTQQTKLFEGNMHYDTPDIRRFDPVPAQYVRVYPERWSPAGIGMRLEVLGCDWTDSKPTVETLGPTVKSEETTTPYPMDEDATECGENCSFEDDKDLQLPSGFNCNFDFPEETCGWVYDHAKWLRSTWISSANPNDRTFPDDKNFLKLQSDGRREGQYGRLISPPVHLPRSPVCMEFQYQAMGGHGVALQVVREASQESKLLWVIREDQGSEWKHGRIILPSYDMEYQIVFEGVIGKGRSGEISIDDIRISTDVPLENCMEPISAFAGEDFKVDIPETHGGEGYEDEIDDEYEGDWSNSSSSTSGAGDPSSGKEKSWLYTLDP

- binding [10]: binds
- binding [11]: binds
B3: Mouse SEMA3F-Fc (R&D Systems #3237-S3) (Fc fusion, UniProt O88632 19-785, looked up, not shown: a dimerising Fc or GST)
chain: ATPIQDQLPATPRVRLSFKELKATGTAHFFNFLLNTTDYRILLKDEDHDRMYVGSKDYVLSLDLHDINREPLIIHWAASPQRIEECILSGKDGNGECGNFVRLIQPWNRTHLYVCGTGAYNPMCTYVNRGRRAQALPWTQMQVVRGRGSRATDGADRPTPTAPRQDYIFYLEPEKLESGKGKCPYDPKLDTASALINEELYAGVYIDFMGTDAAIFRTLGKQTAMRTDQYNSRWLNDPSFIHAELIPDSAERNDDKLYFFFRERSAEAPQNPAVYARIGRICLNDDGGHCCLVNKWSTFLKARLVCSVPGEDGIETHFDELQDVFVQQTQDVRNPVIYAVFTSSGSVFRGSAVCVYSMADIRMVFNGPFAHKEGPNYQWMPFSGKMPYPRPGTCPGGTFTPSMKSTKDYPDEVINFMRTHPLMYQAVYPLQRRPLVVRTGAPYRLTTVAVDQVDAADGRYEVLFLGTDRGTVQKVIVLPKDDQEVEELMLEEVEVFKEPAPVKTMTISSKRQQLYVASAVGVTHLSLHRCQAYGAACADCCLARDPYCAWDGQACSRYTASSKRRSRRQDVRHGNPIRQCRGFNSNANKNAVESVQYGVAGSAAFLECQPRSPQATVKWLFQRDPSDRRREIRAEDRFLRTEQGLLLRALQLGDRGLYSCTATENNFKHIVTRVQLHVLGRDAVHAALFPPLAVSVPPPPGTGPPTPPYQELAQLLAQPEVGLIHQYCQGYWRHVPPRPREAPGALRPPELQDQKKPRNRRHHPPDT

- binding [10]: binds
- binding [11]: binds
B4: SEMA3C-Fc (R&D Systems #5570-S3) (Fc fusion, human, UniProt Q99985 21-751, looked up, not shown: a dimerising Fc or GST)
chain: GSSQPQARVYLTFDELRETKTSEYFSLSHHPLDYRILLMDEDQDRIYVGSKDHILSLNINNISQEALSVFWPASTIKVEECKMAGKDPTHGCGNFVRVIQTFNRTHLYVCGSGAFSPVCTYLNRGRRSEDQVFMIDSKCESGKGRCSFNPNVNTVSVMINEELFSGMYIDFMGTDAAIFRSLTKRNAVRTDQHNSKWLSEPMFVDAHVIPDGTDPNDAKVYFFFKEKLTDNNRSTKQIHSMIARICPNDTGGLRSLVNKWTTFLKARLVCSVTDEDGPETHFDELEDVFLLETDNPRTTLVYGIFTTSSSVFKGSAVCVYHLSDIQTVFNGPFAHKEGPNHQLISYQGRIPYPRPGTCPGGAFTPNMRTTKEFPDDVVTFIRNHPLMYNSIYPIHKRPLIVRIGTDYKYTKIAVDRVNAADGRYHVLFLGTDRGTVQKVVVLPTNNSVSGELILEELEVFKNHAPITTMKISSKKQQLYVSSNEGVSQVSLHRCHIYGTACADCCLARDPYCAWDGHSCSRFYPTGKRRSRRQDVRHGNPLTQCRGFNLKAYRNAAEIVQYGVKNNTTFLECAPKSPQASIKWLLQKDKDRRKEVKLNERIIATSQGLLIRSVQGSDQGLYHCIATENSFKQTIAKINFKVLDSEMVAVVTDKWSPWTWASSVRALPFHPKDIMGAFSHSEMQMINQYCKDTRQQHQQGDESQKMRGDYGKLKALINSRKSRNRRNQLPES

From US20180282402A1
